Measurements reported in the supplement of paper PMC8728848.
The list shows a part of the results.

Legend:
Test in all cases: glycan array binding signal (z-score within array); higher = stronger binding
Settings in all cases: glycan notation: IUPAC condensed, linker removed
[1] = molecular target: Neu5Ac(a2-6)Gal(b1-3)GlcNAc(b1-3)[Gal(b1-4)GlcNAc(b1-6)]Gal(b1-4)Glc
Summary of the method: (§1)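 Glycan array data came from 3228 arrays in the Consortium for Functional Glycomics database, and only arrays with an available protein sequence were kept. Glycan names were put into IUPAC-condensed notation, and columns mapping to the same glycan were averaged. The binding signal is a within-array Z-score, averaged across arrays of one protein sequence run at different concentrations or buffers and across linkers. A negative Z-score can be read as non-binding.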

Neu5Ac(a2-6)Gal(b1-4)Glc = molecular target: Neu5Ac(a2-6)Gal(b1-4)Glc
Summary of the method: as §1

[2] = molecular target: Neu5Ac(a2-6)Gal(b1-4)GlcNAc
Summary of the method: as §1

[3] = molecular target: Neu5Ac(a2-6)Gal(b1-4)GlcNAc(b1-2)Man
Summary of the method: as §1

[4] = molecular target: Neu5Ac(a2-6)Gal(b1-4)GlcNAc(b1-2)Man(a1-3)Man(b1-4)GlcNAc(b1-4)GlcNAc
Summary of the method: as §1

[5] = molecular target: Neu5Ac(a2-6)Gal(b1-4)GlcNAc(b1-2)Man(a1-3)[Gal(b1-4)GlcNAc(b1-2)Man(a1-6)]Man(b1-4)GlcNAc(b1-4)GlcNAc
Summary of the method: as §1

[6] = molecular target: Neu5Ac(a2-6)Gal(b1-4)GlcNAc(b1-2)Man(a1-3)[GlcNAc(b1-2)Man(a1-6)]Man(b1-4)GlcNAc(b1-4)GlcNAc
Summary of the method: as §1

[7] = molecular target: Neu5Ac(a2-6)Gal(b1-4)GlcNAc(b1-2)Man(a1-3)[GlcNAc(b1-4)][Neu5Ac(a2-6)Gal(b1-4)GlcNAc(b1-2)Man(a1-6)]Man(b1-4)GlcNAc(b1-4)GlcNAc
Summary of the method: as §1

[8] = molecular target: Neu5Ac(a2-6)Gal(b1-4)GlcNAc(b1-2)Man(a1-3)[Man(a1-6)]Man(b1-4)GlcNAc(b1-4)GlcNAc
Summary of the method: as §1

[9] = molecular target: Neu5Ac(a2-6)Gal(b1-4)GlcNAc(b1-2)Man(a1-3)[Neu5Ac(a2-3)Gal(b1-4)GlcNAc(b1-2)Man(a1-6)]Man(b1-4)GlcNAc(b1-4)GlcNAc
Summary of the method: as §1

[10] = molecular target: Neu5Ac(a2-6)Gal(b1-4)GlcNAc(b1-2)Man(a1-3)[Neu5Ac(a2-6)Gal(b1-4)GlcNAc(b1-2)Man(a1-6)]Man(b1-4)GlcNAc(b1-4)GlcNAc
Summary of the method: as §1

[11] = molecular target: Neu5Ac(a2-6)Gal(b1-4)GlcNAc(b1-2)Man(a1-3)[Neu5Ac(a2-6)Gal(b1-4)GlcNAc(b1-2)Man(a1-6)]Man(b1-4)GlcNAc(b1-4)[Fuc(a1-6)]GlcNAc
Summary of the method: as §1

[12] = molecular target: Neu5Ac(a2-6)Gal(b1-4)GlcNAc(b1-2)Man(a1-6)Man(b1-4)GlcNAc(b1-4)GlcNAc
Summary of the method: as §1

[13] = molecular target: Neu5Ac(a2-6)Gal(b1-4)GlcNAc(b1-2)Man(a1-6)[Gal(b1-4)GlcNAc(b1-2)Man(a1-3)]Man(b1-4)GlcNAc(b1-4)GlcNAc
Summary of the method: as §1

[14] = molecular target: Neu5Ac(a2-6)Gal(b1-4)GlcNAc(b1-2)Man(a1-6)[GlcNAc(b1-2)Man(a1-3)]Man(b1-4)GlcNAc(b1-4)GlcNAc
Summary of the method: as §1

[15] = molecular target: Neu5Ac(a2-6)Gal(b1-4)GlcNAc(b1-2)Man(a1-6)[Man(a1-3)]Man(b1-4)GlcNAc(b1-4)GlcNAc
Summary of the method: as §1

[16] = molecular target: Neu5Ac(a2-6)Gal(b1-4)GlcNAc(b1-2)[Neu5Ac(a2-6)Gal(b1-4)GlcNAc(b1-4)]Man(a1-3)[GlcNAc(b1-4)][Neu5Ac(a2-6)Gal(b1-4)GlcNAc(b1-2)[Neu5Ac(a2-6)Gal(b1-4)GlcNAc(b1-6)]Man(a1-6)]Man(b1-4)GlcNAc(b1-4)GlcNAc
Summary of the method: as §1

[17] = molecular target: Neu5Ac(a2-6)Gal(b1-4)GlcNAc(b1-2)[Neu5Ac(a2-6)Gal(b1-4)GlcNAc(b1-4)]Man(a1-3)[GlcNAc(b1-4)][Neu5Ac(a2-6)Gal(b1-4)GlcNAc(b1-4)Man(a1-6)]Man(b1-4)GlcNAc(b1-4)GlcNAc
Summary of the method: as §1

[18] = molecular target: Neu5Ac(a2-6)Gal(b1-4)GlcNAc(b1-2)[Neu5Ac(a2-6)Gal(b1-4)GlcNAc(b1-6)]Man(a1-6)[Neu5Ac(a2-6)Gal(b1-4)GlcNAc(b1-2)Man(a1-3)][GlcNAc(b1-4)]Man(b1-4)GlcNAc(b1-4)GlcNAc
Summary of the method: as §1

[19] = molecular target: Neu5Ac(a2-6)Gal(b1-4)GlcNAc(b1-3)Gal(b1-3)GlcNAc
Summary of the method: as §1

[20] = molecular target: Neu5Ac(a2-6)Gal(b1-4)GlcNAc(b1-3)Gal(b1-4)GlcNAc
Summary of the method: as §1

[21] = molecular target: Neu5Ac(a2-6)Gal(b1-4)GlcNAc(b1-3)Gal(b1-4)GlcNAc(b1-2)Man(a1-3)[Neu5Ac(a2-6)Gal(b1-4)GlcNAc(b1-3)Gal(b1-4)GlcNAc(b1-2)Man(a1-6)]GalNAc
Summary of the method: as §1

[22] = molecular target: Neu5Ac(a2-6)Gal(b1-4)GlcNAc(b1-3)Gal(b1-4)GlcNAc(b1-3)Gal(b1-4)GlcNAc
Summary of the method: as §1

B1: PX14375D-bvu-513-34-513 (Bacteroides vulgatus) (protein)
chain: TEDTFWKDETDFNLALTSCYTPLKNALNGGYYGTRGVMLRIARADEVDFRNDISDVYTVNRFTNSNTNSLTQGMFYQFYNALYRTNSIMQKLEEKKEQFSTDFQNSVKGECLFIRGFYLFQLAKEFKDAPLRLTASQSPSTFPLAKSSQADIWAQAKEDLKTAASLLPITNKIGKPTQGAAYAALGKIYVYEENWQEAINVLEPLTQNPYTYKLVEDFNWNFDDTHENNAESIFELLIEDVGGTDLWGDGENINSTQSNTRPKEYAAAEVGGWYEANPTQQIMDIFWKEKDKDGNFDYRARCSVAWDYEGCTYYQRPFREVFAQDKWKTYWILKYQNWKTQKDEPAPPKSFINERAIRYADVLLMLAEAYMNKGALDTSIGYINQIRRRANLNDYSGPITKEGVFEDLVHQRAIEFFVEGERFYDLRRWGLLEQTLKTCDDTRYKNYQTGKSDNINKFNYFPIPAKELDTNPLCTPSEGW
B1 was tested, and the “glycan array binding signal (z-score)” value [1] was 0.171, the “glycan array binding signal (z-score)” value (Neu5Ac(a2-6)Gal(b1-4)Glc) was -0.091 and the “glycan array binding signal (z-score)” value [2] was -0.712. The “glycan array binding signal (z-score)” value [3] was -0.379, the “glycan array binding signal (z-score)” value [4] was -0.394 and the “glycan array binding signal (z-score)” value [5] was 0.663. The “glycan array binding signal (z-score)” value [6] was -0.096, the “glycan array binding signal (z-score)” value [7] was -0.86 and the “glycan array binding signal (z-score)” value [8] was -0.526. The “glycan array binding signal (z-score)” value [9] was -0.464, the “glycan array binding signal (z-score)” value [10] was -0.145 and the “glycan array binding signal (z-score)” value [11] was -0.487. For the same binder, the “glycan array binding signal (z-score)” value [12] was 0.342, the “glycan array binding signal (z-score)” value [13] was -0.619 and the “glycan array binding signal (z-score)” value [14] was -0.574. The “glycan array binding signal (z-score)” value [15] was 0.663, the “glycan array binding signal (z-score)” value [16] was 0.509 and the “glycan array binding signal (z-score)” value [17] was -0.296. For the same binder, the “glycan array binding signal (z-score)” value [18] was 0.09, the “glycan array binding signal (z-score)” value [19] was -0.298 and the “glycan array binding signal (z-score)” value [20] was -0.469. The “glycan array binding signal (z-score)” value [21] was 0.246 and the “glycan array binding signal (z-score)” value [22] was -0.146.
